These are yes or no findings as the source states them, for the method shown. In cells and extracts the contact can be indirect.
Molecular target: T1, OTU domain-containing protein 1 (human (endogenous in 786-O and ACHN)) (UniProt Q5VV17)
T1 sequence: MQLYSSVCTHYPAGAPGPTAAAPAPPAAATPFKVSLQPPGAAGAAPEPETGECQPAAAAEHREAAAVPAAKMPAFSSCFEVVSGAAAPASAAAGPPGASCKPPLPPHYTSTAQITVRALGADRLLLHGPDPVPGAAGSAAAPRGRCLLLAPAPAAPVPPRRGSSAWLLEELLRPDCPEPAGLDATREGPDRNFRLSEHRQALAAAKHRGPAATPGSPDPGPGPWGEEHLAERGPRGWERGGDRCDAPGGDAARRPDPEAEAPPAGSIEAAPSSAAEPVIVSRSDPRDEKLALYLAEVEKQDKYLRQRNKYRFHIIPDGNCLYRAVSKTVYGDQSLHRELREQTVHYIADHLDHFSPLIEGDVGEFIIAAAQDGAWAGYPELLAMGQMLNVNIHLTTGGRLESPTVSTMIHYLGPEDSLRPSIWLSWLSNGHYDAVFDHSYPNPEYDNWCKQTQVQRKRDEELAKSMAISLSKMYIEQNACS
Experiment: co-IP; endogenous proteins; cells lysed in RIPA buffer, protein A+G beads with IgG or a primary antibody (OTUD1 or PTEN), beads washed 6 times with RIPA buffer, Western blot; 786-O and ACHN cells

“AKT (human (endogenous in 786-O)) (enzyme)” was tested, and the binding was “no binding”.

— PMC8898358
